Reference: paper PMC6136811
Results are given in words; binding and its absence hold for the method and conditions named. Binding seen in cells or lysates may run through a third protein. Some binding calls cover weakened binding; strength is not graded here.

Chains of the proteins cited; added tags and fusions are not shown. Lines headed by an entry give the natural chain unless they say otherwise; changes in a name come on top.
UniProt O43683: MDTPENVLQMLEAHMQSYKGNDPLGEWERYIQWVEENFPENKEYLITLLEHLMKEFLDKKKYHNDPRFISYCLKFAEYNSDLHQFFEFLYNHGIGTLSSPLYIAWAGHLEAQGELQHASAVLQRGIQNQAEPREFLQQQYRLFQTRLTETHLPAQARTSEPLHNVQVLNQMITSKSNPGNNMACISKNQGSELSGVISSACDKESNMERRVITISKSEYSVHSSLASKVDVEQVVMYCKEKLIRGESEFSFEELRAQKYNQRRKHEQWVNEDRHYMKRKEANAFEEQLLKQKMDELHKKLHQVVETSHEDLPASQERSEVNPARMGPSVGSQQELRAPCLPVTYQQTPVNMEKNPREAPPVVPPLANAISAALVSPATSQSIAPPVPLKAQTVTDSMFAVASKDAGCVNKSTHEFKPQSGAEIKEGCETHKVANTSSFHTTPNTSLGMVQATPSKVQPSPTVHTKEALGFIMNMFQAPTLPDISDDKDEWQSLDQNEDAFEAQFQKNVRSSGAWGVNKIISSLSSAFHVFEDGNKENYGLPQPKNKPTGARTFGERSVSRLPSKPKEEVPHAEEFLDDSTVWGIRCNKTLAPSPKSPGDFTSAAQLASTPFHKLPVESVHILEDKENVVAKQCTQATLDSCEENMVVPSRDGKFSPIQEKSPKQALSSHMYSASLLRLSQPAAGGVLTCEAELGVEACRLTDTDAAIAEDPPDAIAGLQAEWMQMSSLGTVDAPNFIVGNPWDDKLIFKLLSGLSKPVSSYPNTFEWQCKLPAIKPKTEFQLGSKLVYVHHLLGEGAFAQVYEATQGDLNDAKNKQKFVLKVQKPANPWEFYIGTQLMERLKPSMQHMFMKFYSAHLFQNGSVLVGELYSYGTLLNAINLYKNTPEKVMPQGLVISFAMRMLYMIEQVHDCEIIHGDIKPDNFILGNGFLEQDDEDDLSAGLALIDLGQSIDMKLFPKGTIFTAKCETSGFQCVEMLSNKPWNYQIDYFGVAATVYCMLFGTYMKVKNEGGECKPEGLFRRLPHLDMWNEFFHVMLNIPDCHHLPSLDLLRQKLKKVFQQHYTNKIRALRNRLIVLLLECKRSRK
UniProt Q9QR71: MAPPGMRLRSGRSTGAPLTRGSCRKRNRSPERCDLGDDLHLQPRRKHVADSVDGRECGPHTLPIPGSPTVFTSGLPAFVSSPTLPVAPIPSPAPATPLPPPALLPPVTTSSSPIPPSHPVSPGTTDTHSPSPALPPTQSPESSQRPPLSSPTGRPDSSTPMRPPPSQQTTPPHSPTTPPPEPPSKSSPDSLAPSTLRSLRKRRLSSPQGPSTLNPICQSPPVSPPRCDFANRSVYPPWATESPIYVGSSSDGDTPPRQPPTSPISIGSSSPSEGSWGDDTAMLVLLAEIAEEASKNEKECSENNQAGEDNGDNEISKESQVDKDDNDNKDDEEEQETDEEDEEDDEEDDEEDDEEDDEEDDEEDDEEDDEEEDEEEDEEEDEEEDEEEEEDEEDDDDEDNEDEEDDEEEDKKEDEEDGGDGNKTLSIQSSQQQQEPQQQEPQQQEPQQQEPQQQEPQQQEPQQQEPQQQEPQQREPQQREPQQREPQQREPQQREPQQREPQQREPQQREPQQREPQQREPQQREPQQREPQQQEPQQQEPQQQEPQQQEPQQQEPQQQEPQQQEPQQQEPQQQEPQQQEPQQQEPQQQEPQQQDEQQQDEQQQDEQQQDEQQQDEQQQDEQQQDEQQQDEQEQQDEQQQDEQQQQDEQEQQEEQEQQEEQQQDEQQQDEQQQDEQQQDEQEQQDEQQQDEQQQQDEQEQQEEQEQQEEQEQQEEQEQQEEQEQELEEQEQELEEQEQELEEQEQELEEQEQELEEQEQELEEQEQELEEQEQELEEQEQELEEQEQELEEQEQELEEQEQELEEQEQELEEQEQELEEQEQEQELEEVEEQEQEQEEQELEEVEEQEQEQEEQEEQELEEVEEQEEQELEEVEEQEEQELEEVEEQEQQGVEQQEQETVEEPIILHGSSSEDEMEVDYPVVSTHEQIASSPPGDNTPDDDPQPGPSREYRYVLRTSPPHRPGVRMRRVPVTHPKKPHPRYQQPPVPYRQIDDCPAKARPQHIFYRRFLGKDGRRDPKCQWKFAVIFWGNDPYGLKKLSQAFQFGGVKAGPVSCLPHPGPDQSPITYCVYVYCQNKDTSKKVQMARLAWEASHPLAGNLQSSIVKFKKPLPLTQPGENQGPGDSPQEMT

Assays:
Bub1 [1] = biological target: Bub1 (UniProt O43683); test: co-IP; HEK293 transfected with indicated plasmids (with or without LANA, with or without NNLS, increasing amounts of NNLS plasmid), lysed after 48 hours; IP with Bub1 antibody, western blot
Bub1 [2] = biological target: Bub1 (UniProt O43683); test: co-IP; reverse co-IP: HEK293 transfected with Bub1 and EQ, pRich or NNLS; IP with GFP antibody, western blot; cells treated with MG132 (20 uM) for 12 h before harvest
Bub1 [3] = biological target: Bub1 (UniProt O43683); test: co-IP; HEK293 transfected with Bub1 and LANA truncations, lysed after 48 hours; IP with 2 ug Myc antibody, western blot; cells treated with MG132 (20 uM) for 12 h before harvest

With “LANA (KSHV latency-associated nuclear antigen, ORF73), full length (from UniProt Q9QR71 1-1129)” as the substance, how does the binding (Bub1 [1]) read?
The binding was “binds”.

Which results are given for “NNLS domain of LANA (N-terminal nuclear localization sequence domain, 1-87 aa) (from UniProt Q9QR71 1-87) (domain or fragment)”?
binding (Bub1 [2]): binds; binding (Bub1 [3]): binds
